Measured values reported in paper PMC11801639.
These are yes or no findings as the source states them, for the method shown. Some binding calls cover weakened binding; strength is not graded here.

Biological target: T1, human Eme1 (residues 178–570) (human) (UniProt Q96AY2)
T1 sequence: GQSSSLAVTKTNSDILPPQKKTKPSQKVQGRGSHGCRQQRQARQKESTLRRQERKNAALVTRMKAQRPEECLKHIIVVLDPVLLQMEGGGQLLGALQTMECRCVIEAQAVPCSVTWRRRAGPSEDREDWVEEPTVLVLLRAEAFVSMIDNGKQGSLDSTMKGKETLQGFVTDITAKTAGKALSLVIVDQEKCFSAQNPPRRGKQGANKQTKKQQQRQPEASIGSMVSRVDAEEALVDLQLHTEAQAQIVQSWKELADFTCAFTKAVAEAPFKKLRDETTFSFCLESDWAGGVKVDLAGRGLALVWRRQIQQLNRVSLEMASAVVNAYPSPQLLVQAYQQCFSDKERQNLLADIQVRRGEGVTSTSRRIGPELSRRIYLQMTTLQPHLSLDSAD
Assay: co-purification (Ni2+-NTA affinity chromatography); both chains co-expressed in E. coli Rosetta (DE3); His-tagged complex purified on Ni2+-NTA and verified by SDS-PAGE

binding: binds
B1: human Mus81 (aa 246–551) (domain or fragment, UniProt Q96NY9 246-551)
chain: SAELASEAGVQQQPLELRPGEYRVLLCVDIGETRGGGHRPELLRELQRLHVTHTVRKLHVGDFVWVAQETNPRDPANPGELVLDHIVERKRLDDLCSSIIDGRFREQKFRLKRCGLERRVYLVEEHGSVHNLSLPESTLLQAVTNTQVIDGFFVKRTADIKESAAYLALLTRGLQRLYQGHTLRSRPWGTPGNPESGAMTSPNPLCSLLTFSDFNAGAIKNKAQSVREVFARQLMQVRGVSGEKAAALVDRYSTPASLLAAYDACATPKEQETLLSTIKCGRLQRNLGPALSRTLSQLYCSYGPLT
